Test results taken from US12643867B2, “Compositions and uses thereof” (University of Virginia Patent Foundation, priority 2017, dated 2026).

Target: T1, Alpha (DGK alpha; only in reference sheet cells) (Rattus norvegicus, UniProt P51556)
T1 sequence (P51556 1-727): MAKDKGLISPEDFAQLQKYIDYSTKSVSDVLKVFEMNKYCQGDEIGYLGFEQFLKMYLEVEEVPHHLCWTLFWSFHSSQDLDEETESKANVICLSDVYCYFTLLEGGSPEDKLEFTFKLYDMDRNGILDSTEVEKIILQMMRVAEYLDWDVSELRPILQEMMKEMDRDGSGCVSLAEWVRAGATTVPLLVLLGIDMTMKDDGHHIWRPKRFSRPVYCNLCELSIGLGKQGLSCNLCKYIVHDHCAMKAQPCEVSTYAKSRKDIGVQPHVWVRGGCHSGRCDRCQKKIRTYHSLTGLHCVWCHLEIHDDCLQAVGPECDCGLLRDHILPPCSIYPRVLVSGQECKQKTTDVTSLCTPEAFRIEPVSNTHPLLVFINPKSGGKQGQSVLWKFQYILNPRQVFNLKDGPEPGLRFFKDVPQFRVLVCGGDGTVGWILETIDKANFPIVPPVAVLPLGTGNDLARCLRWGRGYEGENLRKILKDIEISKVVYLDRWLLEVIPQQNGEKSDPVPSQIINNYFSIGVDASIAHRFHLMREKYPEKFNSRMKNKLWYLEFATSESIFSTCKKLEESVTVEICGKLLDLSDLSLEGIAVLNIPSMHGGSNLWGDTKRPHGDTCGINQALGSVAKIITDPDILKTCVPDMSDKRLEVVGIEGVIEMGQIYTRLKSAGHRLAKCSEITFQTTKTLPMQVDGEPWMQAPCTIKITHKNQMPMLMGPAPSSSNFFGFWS
Test: DGK isoform % Activity screen
Format: biochemical

activity at 100 µM (read-out: 100 uM % Activity (section without isoform head; Alpha)): 93%
activity at 1000 µM (read-out: 1 mM % Activity (section without isoform head; Alpha)): 1%
SMILES: CN1C2CCC1CC(OC(c1ccccc1)c1ccccc1)C2 (centres unmarked) [TH004]
